Source: paper PMC12090772
These are yes or no findings as the source states them, for the method shown. Binding seen in cells or lysates may run through a third protein. Binding calls can cover weak binding; strength is not graded here.

Biological target: T1, Vpx HIV-2 Gh (HIV-2 (Ghana-1 strain)) (UniProt P18045)
T1 sequence: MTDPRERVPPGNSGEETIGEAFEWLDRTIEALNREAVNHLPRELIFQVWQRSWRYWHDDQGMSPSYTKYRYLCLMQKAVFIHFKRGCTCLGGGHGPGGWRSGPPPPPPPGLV
Assay: co-IP; HA-Vpr/Vpx constructs expressed in OMK cells; anti-HA immunoprecipitation; endogenous DCAF1 revealed by Western blot

Substance: owl monkey DCAF1 (endogenous in OMK cells)
- binding: binds
